Not every detail of the peptide structures is certain; ends, links or a residue may be inferred. Ends that are not written are not given here.
Tested on: murine Spontaneous Ovarian Teratoma cells (SOT cells)
Assay: Survival and ascites accumulation of mice injected with Spontaneous Ovarian Teratoma cells
Type: in vivo
Conditions: Table I; i.p. days 2 and 5 after SOT cells; dose 60/50 mg/kg/day; controls 21
Protocol: Groups of mice, with six mice in each group, were injected with murine Spontaneous Ovarian Teratoma cells (SOT cells). At day 2, or at day 2 and day 5 after injection, the mice were injected with a saline solution, 5 mg/kg adriamycin (day 2 only), with 22 mg/kg of a peptide having the structure (SEQ ID NO:115)-NH2, or, in which each amino acid residue of (SEQ ID NO:115)-NH2 is a D-amino acid residue, such peptide hereinafter referred to as D-(SEQ ID NO:115)-NH2 or with 130 mg/kg of Cecropin A (SEQ ID NO:116)-NH2. The animals were monitored for survival time, the number of survivors in each group, the increase in lifespan, and the increase in body weight.
The treatment with adriamycin increased the lifespan by 76%.
Groups of mice, with 5 or 6 mice in each group, were injected with Spontaneous Ovarian Teratoma Cells. At 2 days and 5 days after the injection of the Spontaneous Ovarian Teratoma Cells (SOT cells), the groups of mice were injected intraperitoneally with a control saline solution, adriamycin, or with one of the following peptides:
The mice in each group were then monitored for median survival time (in days) and for increase in life span (ILS) vis a vis the control group. […]
Groups of mice, with 6 mice in each group, were injected with Spontaneous Ovarian Teratoma Cells as described in Example 2. […] The mice were then monitored for survival time, as well as for body weight.

Q: With “GIGKFLHSAKKFGKAFVGEIMNS-NH2 [(SEQ ID NO:7)-NH2]” as the substance, how does the ILS read?
A: Its ILS is 100%.
